Values of other authors, collected in patent US20070244080A1, “Method for Treatment of Inflammatory Disorders Using Triptolide Compounds” (priority 2004, published 2007).
Like-named read-outs stand apart in the source and are kept apart here. Some of these results come from one statement about several compounds together. Some compounds share one range, which may span the group rather than tell each member.

Tested on: IL-2 production in Jurkat cells
Conditions: cited from earlier work; for Concentration giving dose-dependent inhibition of IL-2 production: Jurkat cells

For CCNC(=O)O[C@@H]1[C@@]2(C(C)C)O[C@H]2[C@@H]2O[C@]23[C@]12O[C@H]2C[C@H]1C2=C(CC[C@@]13C)C(=O)OC2 [PG666, triptolide 14-ethyl carbamate], the “Concentration for equal IL-2 inhibitory activity to triptolide” value is listed as 10-30 times the active concentration of triptolide.
For CC(C)[C@]12O[C@H]1[C@@H]1O[C@]13[C@]1(O[C@H]1C[C@H]1C4=C(CC[C@@]13C)C(=O)OC4)[C@]2(C)O [PG670, 14-methyl triptolide], the “Concentration for equal IL-2 inhibitory activity to triptolide” value is given as 10-30 times the active concentration of triptolide.
In the case of CC(C)[C@]12O[C@H]1[C@@H]1O[C@]13[C@]1(O[C@H]1C[C@@]1(O)C4=C(CC[C@]31C)C(=O)OC4)[C@@H]2O [PG701, 5-α-hydroxy triptolide], the “Concentration giving dose-dependent inhibition of IL-2 production” value is given as no less than 10 nM.
In the case of CC(=O)O[C@@H]1[C@@]2(C(C)C)O[C@H]2[C@@H]2O[C@]23[C@]12O[C@H]2C=C1C2=C(CC[C@@]13C)C(=O)OC2 [PG746, 14-acetyl-5,6-didehydro triptolide], the “Concentration giving dose-dependent inhibition of IL-2 production” value (after incubation for 16 hours with human serum) is given as no less than 10 nM.
In the case of CC1OC(=O)C2=C1[C@@H]1C[C@@H]3O[C@@]34[C@H](O)[C@@]3(C(C)C)O[C@H]3[C@@H]3O[C@@]34[C@@]1(C)CC2 (some centres unmarked) [PG795, 19-methyl triptolide], the “Concentration for equal IL-2 inhibitory activity to triptolide” value is given as 10-30 times the active concentration of triptolide.
